No constants are given. Whether binding was seen depends on the method and setting. Some results given as binding are weak or reduced against the parent protein; the word gives no strength.
Assays:
[1] = biological target: Fc tagged human TNFR1 (Sino Biological) (human) (UniProt P19438); test: SPR (Biacore T200) single cycle kinetics, Fc-tagged receptor captured on Protein A chip, TNF protein as analyte at 1.67-15 nM
[2] = biological target: Fc tagged human TNFR1 (Sino Biological) (human) (UniProt P19438); test: phage binding test on Fc tagged receptor

Chains of the proteins cited; added tags and fusions are not shown. Residues count along the entry.
UniProt P19438, residues 22-211: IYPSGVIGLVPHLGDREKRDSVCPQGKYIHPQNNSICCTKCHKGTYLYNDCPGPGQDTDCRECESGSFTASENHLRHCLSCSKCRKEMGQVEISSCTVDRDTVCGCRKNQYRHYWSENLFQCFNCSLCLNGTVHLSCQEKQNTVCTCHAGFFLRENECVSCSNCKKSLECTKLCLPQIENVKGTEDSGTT
UniProt P06804, residues 80-235: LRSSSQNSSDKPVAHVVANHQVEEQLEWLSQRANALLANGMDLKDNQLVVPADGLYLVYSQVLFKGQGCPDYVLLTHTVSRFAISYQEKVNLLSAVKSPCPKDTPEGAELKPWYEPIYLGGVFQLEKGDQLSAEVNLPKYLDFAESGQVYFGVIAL

Substance: mouse TNF (mTNF), soluble protein expressed from pANT65 (from UniProt P06804 80-235) (ligand)
- binding [1]: binds

Substance: phage displaying mTNF (gene III fusion, pANT65) (from UniProt P06804 80-235)
- binding [2]: binds

Source: patent publication US20220387557A1
